Assay results as given in PMC10861518.
Results are given in words; binding and its absence hold for the method and conditions named. Binding seen in cells or lysates may run through a third protein. Some binding calls cover weakened binding; strength is not graded here. Sequences can lack the tags named with a protein.

Key:
Assay in all cases: co-IP; HEK293T cells cotransfected for 48 h with Biotin-HNF4α and a Myc-Peli1 construct; whole cell lysates immunoprecipitated with Myc antibody and protein A/G agarose at 4 °C, washed with buffer with 500 mM NaCl; Biotin-HNF4α detected with Streptavidin-Biotin complex containing HRP
[1] = biological target: T1, Myc-tagged full-length Peli1 (Myc-Full-Peli1) (UniProt Q96FA3)
T1 sequence: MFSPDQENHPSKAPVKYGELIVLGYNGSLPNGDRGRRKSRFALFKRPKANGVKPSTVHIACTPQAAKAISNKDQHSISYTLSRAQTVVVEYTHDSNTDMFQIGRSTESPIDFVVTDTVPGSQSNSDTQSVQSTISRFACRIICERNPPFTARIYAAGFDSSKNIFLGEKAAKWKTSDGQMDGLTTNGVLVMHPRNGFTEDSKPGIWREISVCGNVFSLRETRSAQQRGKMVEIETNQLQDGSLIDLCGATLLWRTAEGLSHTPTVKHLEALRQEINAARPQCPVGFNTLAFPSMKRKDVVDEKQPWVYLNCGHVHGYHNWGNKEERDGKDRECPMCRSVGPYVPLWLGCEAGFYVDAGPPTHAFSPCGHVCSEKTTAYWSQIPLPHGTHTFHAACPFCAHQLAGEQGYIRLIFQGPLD

[2] = biological target: T2, Peli1 with a deletion of the FHA domain (aa 276-418, Myc-ΔFHA-Peli1) (UniProt Q96FA3)
T2 sequence: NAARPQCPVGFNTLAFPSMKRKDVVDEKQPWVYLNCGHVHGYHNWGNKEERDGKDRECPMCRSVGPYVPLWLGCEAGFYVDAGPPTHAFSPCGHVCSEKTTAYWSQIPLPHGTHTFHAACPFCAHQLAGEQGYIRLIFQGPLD

[3] = biological target: T3, Peli1 with a deletion of the RING-like domain (aa 1-289, Myc-ΔRING-Peli1) (UniProt Q96FA3)
T3 sequence: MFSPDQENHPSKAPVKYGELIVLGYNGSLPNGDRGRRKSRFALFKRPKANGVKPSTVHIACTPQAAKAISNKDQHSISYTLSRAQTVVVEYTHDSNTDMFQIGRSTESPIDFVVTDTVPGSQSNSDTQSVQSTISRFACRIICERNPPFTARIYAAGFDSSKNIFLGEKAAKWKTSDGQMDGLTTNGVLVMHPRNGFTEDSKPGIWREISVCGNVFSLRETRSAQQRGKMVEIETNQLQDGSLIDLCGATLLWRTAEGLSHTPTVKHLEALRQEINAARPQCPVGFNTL

B1: Biotin-HNF4α (hepatocyte nuclear factor 4alpha with TEV cleavage site and biotinylated peptide, from pEBB-TB-HNF4α) (protein, UniProt P41235 1-474)
chain: MRLSKTLVDMDMADYSAALDPAYTTLEFENVQVLTMGNDTSPSEGTNLNAPNSLGVSALCAICGDRATGKHYGASSCDGCKGFFRRSVRKNHMYSCRFSRQCVVDKDKRNQCRYCRLKKCFRAGMKKEAVQNERDRISTRRSSYEDSSLPSINALLQAEVLSRQITSPVSGINGDIRAKKIASIADVCESMKEQLLVLVEWAKYIPAFCELPLDDQVALLRAHAGEHLLLGATKRSMVFKDVLLLGNDYIVPRHCPELAEMSRVSIRILDELVLPFQELQIDDNEYAYLKAIIFFDPDAKGLSDPGKIKRLRSQVQVSLEDYINDRQYDSRGRFGELLLLLPTLQSITWQMIEQIQFIKLFGMAKIDNLLQEMLLGGSPSDAPHAHHPLHPHLMQEHMGTNVIVANTMPTHLSNGQMCEWPRPRGQAATPETPQPSPPGGSGSEPYKLLPGAVATIVKPLSAIPQPTITKQEVI
modifications: biotin on the biotinylated peptide tag
For B1, the binding [1] was “binds”, the binding [2] was “binds” and the binding [3] was “no binding”.
